Test results: patent US7579335B2, “Androstane 17α-carbonate derivatives for use in the treatment of allergic and inflammatory conditions” (Glaxo Group Limited, priority 2005, dated 2009)
Some of these results come from one statement about several compounds together. At least one structure is not confirmed: it was looked up by name or label, or the drawing left a doubt.

Biological target: T1, progesterone receptor (Homo sapiens, UniProt P06401)
T1 construct: expressed in transfected cells; host or cells: CV-1 cells transduced with PRb-BacMam (baculovirus)
T1 sequence (P06401 1-933): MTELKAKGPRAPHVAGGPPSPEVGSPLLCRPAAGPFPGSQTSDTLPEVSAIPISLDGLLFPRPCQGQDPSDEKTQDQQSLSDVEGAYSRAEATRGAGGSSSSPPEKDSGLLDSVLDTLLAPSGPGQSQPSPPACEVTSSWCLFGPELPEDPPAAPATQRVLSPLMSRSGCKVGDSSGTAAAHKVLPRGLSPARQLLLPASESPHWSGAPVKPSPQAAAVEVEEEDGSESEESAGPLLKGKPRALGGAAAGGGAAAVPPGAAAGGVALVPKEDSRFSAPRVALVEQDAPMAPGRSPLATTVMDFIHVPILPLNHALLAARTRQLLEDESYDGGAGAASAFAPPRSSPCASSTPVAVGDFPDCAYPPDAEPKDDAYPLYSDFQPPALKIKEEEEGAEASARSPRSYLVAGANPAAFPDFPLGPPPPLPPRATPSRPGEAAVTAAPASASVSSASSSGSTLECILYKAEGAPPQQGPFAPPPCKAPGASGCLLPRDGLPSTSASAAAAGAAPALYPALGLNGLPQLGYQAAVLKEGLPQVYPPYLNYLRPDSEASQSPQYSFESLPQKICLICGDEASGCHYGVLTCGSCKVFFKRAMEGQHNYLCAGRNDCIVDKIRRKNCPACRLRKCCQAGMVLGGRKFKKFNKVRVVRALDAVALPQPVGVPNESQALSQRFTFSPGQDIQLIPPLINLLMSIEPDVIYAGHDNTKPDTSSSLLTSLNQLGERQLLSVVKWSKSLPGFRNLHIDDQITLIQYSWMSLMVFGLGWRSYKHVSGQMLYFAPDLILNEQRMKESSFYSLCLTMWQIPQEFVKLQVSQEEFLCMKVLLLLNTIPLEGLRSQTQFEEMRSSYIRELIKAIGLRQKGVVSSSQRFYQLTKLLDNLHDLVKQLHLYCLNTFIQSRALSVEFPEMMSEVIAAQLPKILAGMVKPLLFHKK
Experiment: Assay for progesterone receptor activity (PRb-BacMam/MMTV-BacMam transduced CV-1 cells)
Assay type: cell-based
Details: CV-1 cells transduced with PRb-BacMam and MMTV-BacMam; 24 h

Compound | pEC50 progesterone receptor
CC1CCCCC1OC(=O)OC1(C(=O)OCC#N)C(C)CC2C3CC(F)C4=CC(=O)C=CC4(C)C3(F)C(O)CC21C (racemic) [Example 10, Cyanomethyl (6α,11β,16α,17α)-6,9-difluoro-11-hydroxy-16-methyl-17-[({[(1SR,2RS)-2-methylcyclohexyl]oxy}carbonyl)oxy]-3-oxoandrosta-1,4-diene-17-carboxylate] | < 7
C[C@@H]1C[C@H]2[C@@H]3C[C@H](F)C4=CC(=O)C=C[C@]4(C)[C@@]3(F)[C@@H](O)C[C@]2(C)[C@@]1(OC(=O)OC1CC2CCC1C2)C(=O)OCC#N (mixture of isomers) [Example 12, Cyanomethyl (6α,11β,16α,17α)-17-({[(1RS,2RS,4SR)-bicyclo[2.2.1]hept-2-yloxy]carbonyl}oxy)-6,9-difluoro-11-hydroxy-16-methyl-3-oxoandrosta-1,4-diene-17-carboxylate] | < 7
CC1CC2C3CC(F)C4=CC(=O)C=CC4(C)C3(F)C(O)CC2(C)C1(OC(=O)OC1CC2CCC1C2)C(=O)OCC#N (racemic) [Example 13, Cyanomethyl (6α,11β,16α,17α)-17-({[(1RS,2SR,4SR)-bicyclo[2.2.1]hept-2-yloxy]carbonyl}oxy)-6,9-difluoro-11-hydroxy-16-methyl-3-oxoandrosta-1,4-diene-17-carboxylate] | < 7
